Test results from the supplement of paper PMC12009310.
Where a name gives a salt, the structure may show the parent alone. ± gives the standard deviation of the averaged measurements. The list shows a part of the results. Part of the spread comes from offsets between plates or batches.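 The cells are a mouse kidney inner medullary collecting duct line, silenced either for the ciliary gene Rpgrip1l or with a non-targeting control siRNA. Primary scores are means of two runs against batch controls; in the follow-up screen a hit raised cilia by at least 2 over its matching control, and compounds dropping cell number by 2 or more were excluded. The cells are a mouse kidney inner medullary collecting duct line, silenced either for the ciliary gene Rpgrip1l or with a non-targeting control siRNA.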

Columns and labels:
[1] = test system: mIMCD3; assay: robust z score of cell number vs plate controls; higher = more cells (less cytotoxic); settings: 10 µM, 48 h
[2] = test system: mIMCD3; assay: robust z cell number difference from vehicle control (robust z score difference); higher = more cells; settings: 10 µM, 48 h
[3] = test system: mIMCD3; assay: robust z score of cilia incidence (% cells with single cilium) vs plate controls; higher = more ciliated cells; settings: 10 µM; 48 h; siRNA: siScr
[4] = test system: mIMCD3; assay: robust z cilia incidence difference from vehicle control (robust z score difference); higher = more ciliated cells; settings: 10 µM; 48 h; siRNA: siScr
[5] = test system: mIMCD3; assay: robust z cilia incidence difference from vehicle control (robust z score difference); higher = more ciliated cells (rescue); settings: 10 µM; 48 h; siRNA: siRpgrip1l
[6] = test system: mIMCD3; assay: robust z score of cilia incidence (% cells with single cilium) vs plate controls; higher = more ciliated cells (rescue of cilia loss); settings: 10 µM; 48 h; siRNA: siRpgrip1l

SMILES | robust z score of cell number ([1]; siRNA: siRpgrip1l) | robust z score of cell number ([1]; siRNA: siScr) | robust z cell number difference ([2]; siRNA: siRpgrip1l) | robust z cell number difference ([2]; siRNA: siScr) | robust z score of cilia incidence [3] | robust z cilia incidence difference [4] | robust z cilia incidence difference [5] | robust z score of cilia incidence [6]
O=C1CCCN1CC#CCN1CCCC1 [Oxotremorine sesquifumarate] | 1.65 ± 1.1 | -3.63 ± 1.9 | 1.57 | -0.0196 ± 0.63 | -0.521 ± 0.51 | 2.9 ± 1.5 | 1.77 | -4 ± 4.5
CC[C@@H](CO)NC(=O)[C@@H]1C=C2c3cccc4[nH]cc(c34)C[C@H]2N(C)C1 [Methylergometrine maleate] | 3.09 ± 6.8 | -2.31 ± 4.5 | -9.51 | -7.29 ± 1.5 | 4.23 ± 4.8 | -1.02 ± 0.92 | -8.6 | -7.27 ± 5.5
CN1c2ccccc2C(NCCCCCCC(=O)O)c2ccc(Cl)cc2S1(=O)=O (stereo not drawn) [Tianeptine] | -3.66 ± 0.6 | 1.13 ± 3.1 | – | – | 8.28 ± 21 | – | – | -28.2 ± 22
Cc1nnc2n1-c1sc(CCC(=O)N3CCOCC3)cc1C(c1ccccc1Cl)=NC2 | -6.02 ± 2.9 | -1.1 ± 2.4 | – | – | 2.33 ± 0.24 | – | – | -10.1 ± 10
CCNC(=O)[C@H]1O[C@@H](n2cnc3c(N)ncnc32)[C@H](O)[C@@H]1O | -4.61 ± 6.3 | -6.41 ± 2.9 | – | – | -5.33 ± 2.5 | – | – | -13.2 ± 1.4
CN1[C@@H]2CC[C@H]1C[C@@H](OC(=O)c1cc(Cl)cc(Cl)c1)C2 | -85.8 ± 59 | -128 ± 120 | – | – | -19.3 ± 1.4 | – | – | -55.5 ± 6.1
CCOc1cncc(/C=C/CCNC)c1 [TC 2559 difumarate] | -2.47 ± 2.5 | -2.01 ± 4.8 | 1.06 | -3.46 ± 5.7 | -6.11 ± 9.3 | -2.27 ± 12 | 1.81 | -5.91 ± 1.1
C#CCOC(=O)C1=CCCN(C)C1 [Arecaidine propargyl ester tosylate] | -18.5 ± 16 | -7.06 ± 3.6 | – | – | -0.242 ± 4.3 | – | – | -13.9 ± 9.7
O=c1cccc2n1C[C@@H]1CNC[C@H]2C1 [(-)-Cytisine] | 4.58 ± 8.8 | -2.64 ± 1.5 | 0.678 | 0.461 ± 2.1 | 3.67 ± 1.4 | 3.77 ± 4.9 | 0.269 | -7.23 ± 5.2
O=C(Cc1ccc(Cl)c(Cl)c1)N1CCCCC1CN1CCCC1 (stereo not drawn) | -1.33 ± 1.6 | -2.32 ± 1.8 | – | – | -2.99 ± 0.78 | – | – | -7.61 ± 3.1
O=C(O)CCC(CP(=O)(O)O)C(=O)O (stereo not drawn) [PMPA (NAALADase inhibitor)] | -7.13 ± 4.3 | 0.649 ± 2.2 | 0.609 | -1 ± 4.1 | 0.0528 ± 8.5 | 3.35 ± 3 | 3.1 | -5.8 ± 0.92
Cc1onc(O)c1C[C@H](N)C(=O)O | -2.43 ± 4 | 0.108 ± 1.2 | 1.52 | 4.49 ± 5.9 | 3.19 ± 3.5 | -4.64 ± 7.3 | 3.49 | -11.7 ± 7.1
O=C1NC(=O)c2c1c1c3ccccc3n3c1c1c2c2ccccc2n1[C@H]1CC[C@@H]3O1 | -29.2 ± 8.7 | -117 ± 82 | – | – | -33.6 ± 10 | – | – | -37.5 ± 3.2
c1cc(Cc2cnc[nH]2)ccn1 [Immethridine dihydrobromide] | -5.48 ± 3.3 | -1.33 ± 0.15 | – | – | 4.27 ± 4.9 | – | – | -8.83 ± 6.9
NCC(CS(=O)(=O)O)c1ccc(Cl)cc1 (stereo not drawn) [Saclofen] | 7.5 ± 12 | -2.6 ± 3.8 | – | – | 0.107 ± 2.8 | – | – | -6.96 ± 3.1
C1CCc2nnnn2CC1 [Pentylenetetrazole] | -31.5 ± 33 | -20.1 ± 4.2 | – | – | -9.4 ± 4 | – | – | -19.2 ± 3.9
c1ccc(C2CC2)c(OCC2=NCCN2)c1 [Cirazoline hydrochloride] | -3.99 ± 2 | -0.617 ± 1.4 | – | – | 2.04 ± 1.2 | – | – | -7.15 ± 2.2
CCC1(C2=NCCN2)Cc2ccccc2O1 (stereo not drawn) [Efaroxan hydrochloride] | -1.15 ± 3.8 | -2.8 ± 0.41 | – | – | 2.37 ± 1.3 | – | – | -5.48 ± 0.29
CCOC(=O)c1cncn1[C@H](C)c1ccccc1 [Etomidate] | -23.5 ± 22 | 0.96 ± 2.1 | – | – | 1.82 ± 3.1 | – | – | -123 ± 100
CCCN(CCC)C1CCc2cccc(O)c2C1 (stereo not drawn) [8-Hydroxy-DPAT hydrobromide] | -3.29 ± 2.3 | -1.81 ± 2.1 | – | – | 0.779 ± 2.1 | – | – | -10.9 ± 1.4
Cc1[nH]c2ccc(O)cc2c1CCN [2-Methyl-5-hydroxytryptamine hydrochloride] | -4.41 ± 5.9 | -1.98 ± 5.3 | 2.83 | -0.56 ± 0.21 | 0.396 ± 2.2 | -3.64 ± 6.7 | 4.16 | -3.29 ± 12
NCc1cc(O)no1 [Muscimol] | 1.35 ± 4.6 | 1.35 ± 3.5 | – | – | 2.86 ± 0.51 | – | – | -7.23 ± 2.7
COc1cc2c(cc1O)C(CCc1ccc(Cl)cc1)N(C)CC2 (stereo not drawn) | -20 ± 10 | -33.5 ± 27 | – | – | -19.7 ± 1.8 | – | – | -48.9 ± 18
CNCCc1cnc[nH]1 [N α-Methylhistamine dihydrochloride] | 0.343 ± 2.7 | 0.33 ± 0.95 | – | – | -0.884 ± 0.98 | – | – | -7.84 ± 4.9
CCOC(=O)c1ncn2c1[C@@H]1CCCN1C(=O)c1cc(OC)ccc1-2 | -26.6 ± 17 | -5.29 ± 3.7 | – | – | 2.34 ± 6.7 | – | – | -8.84 ± 0.88
FC(F)(F)c1cccc(C2=CCN(CCc3ccc4ccccc4c3)CC2)c1 [Xaliproden hydrochloride] | -0.602 ± 3.6 | -43.9 ± 52 | – | – | -15.6 ± 0.88 | – | – | -23.1 ± 5.6
COc1cc2c(cc1OC)C1CC(=O)C(CC(C)C)CN1CC2 (stereo not drawn) [Tetrabenazine] | -2.15 ± 1.4 | -9.65 ± 12 | -15.9 | -7.87 ± 11 | 1.3 ± 2.6 | -3.2 ± 7.4 | -24.2 | -6.69 ± 8.8
CO[C@]12C[C@@H](COC(=O)c3cncc(Br)c3)CN(C)[C@@H]1Cc1cn(C)c3cccc2c13 [Nicergoline] | -10.1 ± 13 | 10.2 ± 19 | -2.02 | -1.52 ± 3.3 | -0.128 ± 0.61 | -2.21 ± 7 | -0.223 | -7.63 ± 7.2

Single records, as listed above. Values in the order: robust z score of cell number ([1]; siRNA: siRpgrip1l)	robust z score of cell number ([1]; siRNA: siScr)	robust z cell number difference ([2]; siRNA: siRpgrip1l)	robust z cell number difference ([2]; siRNA: siScr)	robust z score of cilia incidence [3]	robust z cilia incidence difference [4]	robust z cilia incidence difference [5]	robust z score of cilia incidence [6]
Cc1onc(O)c1C[C@H](N)C(=O)O in the list: -2.43 ± 4	0.108 ± 1.2	1.52	4.49 ± 5.9	3.19 ± 3.5	-4.64 ± 7.3	3.49	-11.7 ± 7.1
COc1cc2c(cc1OC)C1CC(=O)C(CC(C)C)CN1CC2 (stereo not drawn) [Tetrabenazine] in the list: -2.15 ± 1.4	-9.65 ± 12	-15.9	-7.87 ± 11	1.3 ± 2.6	-3.2 ± 7.4	-24.2	-6.69 ± 8.8
